For assay [1], the target named is T1, SDC4 Δcyt (aa 171–198 deleted) (mouse) (UniProt O35988).
T1 sequence: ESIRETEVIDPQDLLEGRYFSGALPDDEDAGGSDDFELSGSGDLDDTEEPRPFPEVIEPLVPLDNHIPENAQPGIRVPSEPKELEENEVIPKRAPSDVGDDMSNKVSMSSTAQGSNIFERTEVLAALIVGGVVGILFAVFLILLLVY
Nature of the assay: co-IP; lysates of HEK293 cells co-transfected with FL rat β-parvin and mouse SDC4 FL or SDC4Δcyt; IP of syndecan-4, protein A/G agarose beads O/N at 4°C; immunoblot. (In general: A western blot detects proteins with antibodies after separation by electrophoresis.)

The target of assay [2] is T2, SDC4 FL (aa 1–198) (mouse) (UniProt O35988).
T2 sequence: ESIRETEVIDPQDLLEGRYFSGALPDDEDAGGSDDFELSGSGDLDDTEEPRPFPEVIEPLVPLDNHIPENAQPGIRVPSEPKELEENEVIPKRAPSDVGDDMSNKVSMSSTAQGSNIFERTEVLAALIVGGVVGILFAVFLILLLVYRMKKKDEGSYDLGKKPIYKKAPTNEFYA
The assay is described as above.

Results are given in words; binding and its absence hold for the method and conditions named. In cells and extracts the contact can be indirect. For some assays here: A result given as binding can be weak or reduced; the word gives no strength.

“3xFLAG-β-parvin FL (amino acids 1–365) (rat)”: the binding result is “no binding” in assay [1] and “binds” in assay [2].

These data come from publication PMC12447578, “Syndecan-4 interacts directly with β-parvin and regulates the ILK-PINCH-β-parvin complex, the β-parvin-β-PIX-Rac1 axis, and cardiomyocyte geometry in a sex-dependent manner” (Frontiers in Cell and Developmental Biology, 2025).
